# Assay results published in patent US9801850B2, “Antibacterial agent” (OSAKA UNIVERSITY, priority 2009, dated 2017).
# Some entries share one result that the patent states for a list of compounds.
# Assays:
# MRSA ATCC43300 = experiment: MIC with addition of PG, LPS or D-Ala-D-Ala (Example 3); assay type: cell-based, Staphylococcus aureus; conditions: D-Ala-D-Ala 30 μg/ml
# Description: (§1) Regarding EGCG-C16, whether or not the antibacterial action thereof against MSSA and MRSA is inhibited by the addition of: peptidoglycan (PG) or D-Ala-D-Ala, which are each a cell wall component; or lipopolysaccharide (LPS), which is an outer membrane component, was examined. The MIC measurement was carried out in the manner described in Section (2) of Example 2.
# (§2) In Example 3, EGCG-C16 prepared in Example 1 was used as an antibacterial agent. In Comparative Example 3, unsubstituted EGCG was used as an antibacterial agent. […] Antibacterial agent solutions of EGCG-C16 and EGCG were prepared in the same manner as described in Section (2) of Example 1. Antibacterial agent solutions of the antibacterial agents other than EGCG-C16 and EGCG were prepared by dissolving them in PBS.
# (§3) As additives, PG (Peptidoglycan Staphylococcus aureus, SIGMA-ALDRICH), D-Ala-D-Ala (SIGMA-ALDRICH), and LPS (Lipopolysaccharide Salmonella, SIGMA-ALDRICH) were provided. Each of the additives was dissolved in PBS, and the resultant solution was used as an additive solution.
# (§4) Dilution series of the antibacterial agent solutions were prepared. Each of them was dispensed to a 96-well plate. Further, the additive solution was added thereto and mixed. […] Unless otherwise stated, the minimum inhibitory concentration (MIC) was calculated in the same manner as described in Section (2) of Example 2.
# MSSA ATCC25923 = experiment: as above; assay type: cell-based, Staphylococcus aureus; conditions: D-Ala-D-Ala 30 μg/ml
# Description: as §1, §2, §3, §4
compound,measurement,setting,value
"CN[C@H](CC(C)C)C(=O)N[C@H]1C(=O)N[C@@H](CC(N)=O)C(=O)N[C@H]2C(=O)N[C@H]3C(=O)N[C@H](C(=O)N[C@H](C(=O)O)c4cc(O)cc(O)c4-c4cc3ccc4O)[C@H](O)c3ccc(c(Cl)c3)Oc3cc2cc(c3O[C@@H]2O[C@H](CO)[C@@H](O)[C@H](O)[C@H]2O[C@H]2C[C@](C)(N)[C@H](O)[C@H](C)O2)Oc2ccc(cc2Cl)[C@H]1O [VCM, vancomycin]",increase in MIC by adding D-Ala-D-Ala,MRSA ATCC43300,≥ 16 times
same,increase in MIC by adding D-Ala-D-Ala,MSSA ATCC25923,≥ 16 times
